Laboratory results from PubChem BioAssay AID504648 (National Center for Advancing Translational Sciences (NCATS), 2011).
Where “and” joins values, the source holds several entries; their conditions need not be identical. Equal values may be shown once. The campaign covered roughly 390,000 compounds. About 610 (0.16%) were called active. Inconclusive results, whose numbers are uncertain, are shown with a selection of clear calls. Calls follow the shape of the dose curve; as a rule, active = well fitted inhibition curve with a large enough effect; inconclusive = small, poorly fitted or top-dose-only effect, or effect the other way, or another doubt; inactive = no such curve, though single readings can be large or run the other way. Potencies beside an inconclusive call are fits to weak or partial responses and may not hold up.

experiment: Nrf2 qHTS screen for inhibitors: counterscreen for cytotoxicity; details: A549 ARE-Fluc cells, CellTiter-Fluor viability, 18-24 h; series mostly up to 46 µM; activity change, negative = cytotoxicity: at the top concentration
In short: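 A549 ARE-Fluc cells in 5% FBS OPTI-MEM, 5000 cells/well, rested 2 h then exposed to compounds in concentration-response for 18-24 h at 37 °C. Viability by CellTiter-Fluor fluorescence (Ex 405/Em 525) after 30 min; luciferase luminescence (BugLite, 15 min, RT) read afterwards.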
% is scaled to controls: 0 for no effect and ±100 for the full control effect; potency is read from the fitted curve at half-maximal effect.

Compound	Potency	activity change, negative = cytotoxicity
ClCCN(CCCl)c1ccc(C2=NCCc3ccccc32)cc1	inconclusive: 29.1 µM [falling, single point]	–
CC(C)(C)c1ccc(/C=C2\Oc3cc(OC(=O)N4CCOCC4)ccc3C2=O)cc1	inconclusive: 29.1 µM [falling, single point]	–
C/C(=C\c1ccc(N(C)C)cc1)[N+](=O)[O-]	inconclusive: 23.1 µM [falling, single point]	–
Cc1cccc(OP(=O)(Oc2cccc(C)c2)OC(c2ccccc2)C(F)(F)F)c1 (stereo not drawn)	–	inactive: 13.4%
Cc1cc(OCC(=O)N2CCC(C(=O)O)(c3ccccc3)CC2)c2c(C)c(C)c(=O)oc2c1	–	inactive: 2.45%
C[n+]1c2ccccc2nc2ccc(NCCO)cc21	active: 16.4 µM	–
O=C(O)CC1OCC=C2CN3CCC45C6=CC(=O)C(=O)C([N+](=O)[O-])=C6NC4C1C2CC35 (stereo not drawn)	inconclusive: 18.4 µM [falling, single point] and inconclusive: 23.1 µM [falling, single point]	–
COc1ccc(N2C(=O)NC(=O)/C(=C/c3ccc([N+](=O)[O-])s3)C2=O)cc1	inconclusive: 23.1 µM [falling, single point]	–
CC(C)N1CC=C(c2c[nH]c3ccccc23)CC1	inconclusive: 7.31 µM [falling, partial curve]	–
O=[N+]([O-])c1c2ccccc2cc2ccccc12	–	inactive: 0.534%
CCN(CC)c1ccc(CNCCc2ccccc2F)cc1	inconclusive: 18.4 µM [falling, single point]	–
Cc1cccc(CN2CCN(c3ccc(Cl)cc3)CC2)c1	inconclusive: 13 µM [falling, single point]	–
O=P1(Nn2cnnc2)C=C(c2ccccc2)OC(c2ccccc2)=C1	inconclusive: 23.1 µM [activator, partial curve, poor fit]	–
CC1=CC(=C2C(=O)NC(=S)NC2=O)C=C(C(F)(F)F)N1Cc1ccccc1	active: 14.6 µM	–
CCCCCn1c(=O)c(C(=O)Nc2nc(CC(=O)OCC)cs2)c(O)c2ccccc21	–	inactive: 3.53%
CC[C@@]1(O)C(=O)OCc2c1cc1n(c2=O)Cc2cc3c(N)cccc3nc2-1	inconclusive: 0.92 µM [falling, partial curve, poor fit]	–
COc1cc(CC2C(=O)N(C)C(=O)N(C)C2=O)ccc1OCc1ccccc1	inconclusive: 29.1 µM [activator, partial curve, poor fit]	–
CNc1ccc2oc(C[C@H]3O[C@@]4(CC[C@H]3C)O[C@H]([C@H](C)C(=O)c3ccc[nH]3)[C@H](C)C[C@H]4C)nc2c1C(=O)O	active: 3.66 µM	–
COc1ccc(C2=NCc3nnc(C)n3-c3ccc(Cl)cc32)cc1Cl	inconclusive: 29.1 µM [falling, single point]	–
Cc1ccc(C[n+]2c(-c3ccc(C)cc3)cc(-c3ccc(C)cc3)cc2-c2ccc(C)cc2)cc1	active: 18.4 µM	–
CCC(=O)c1c(O)n(C2CCCCCC2)c(=O)[nH]c1=O	inconclusive: 25.9 µM [falling, single point]	–

Pulled one by one from the list above, 2 records:
Compound	Potency	activity change, negative = cytotoxicity
COc1ccc(N2C(=O)NC(=O)/C(=C/c3ccc([N+](=O)[O-])s3)C2=O)cc1	inconclusive: 23.1 µM [falling, single point]	–
O=P1(Nn2cnnc2)C=C(c2ccccc2)OC(c2ccccc2)=C1	inconclusive: 23.1 µM [activator, partial curve, poor fit]	–

Remaining list, next part:

Compound	Potency	activity change, negative = cytotoxicity
Cc1ccc(C(=O)O)cc1N=Nc1c(O)[nH]c(=O)[nH]c1=O	inconclusive: 25.9 µM [falling, single point]	–
CCOC(=O)c1c(-n2c(C)cc(/C=C3\C(=O)NC(=O)N(C)C3=O)c2C)sc2c1CCCC2	inconclusive: 29.1 µM [falling, single point]	–
O=C(Nc1ccc(Oc2ccc(Cl)cc2)c(Cl)c1)c1cc(I)cc(I)c1O	inconclusive: 29.1 µM [falling, single point]	–
CCOC(=O)C(O)(c1ccc(N(CC)S(=O)(=O)c2ccc(C)cc2)cc1)C(F)(F)F (stereo not drawn)	inconclusive: 25.9 µM [falling, partial curve, poor fit]	–
Cc1ccccc1-n1c(/C=C/c2ccc(N(C)C)cc2)nc2ccccc2c1=O	inconclusive: 20.6 µM [activator, partial curve]	–
C=CCc1cc(OC)c2c(c1)OCO2	–	inactive: -0.353%
O=C1/C(=C/c2ccccc2)C[C@@]2(O)[C@H]3Cc4ccc(O)c5c4[C@@]2(CCN3CC2CC2)C1O5 (stereo partly drawn)	inconclusive: 20.6 µM [falling, single point]	–
COc1ccc(-n2c(/C=C/c3ccc4c(c3)OCO4)nc3ccccc3c2=O)cc1	–	inactive: 6.83%
CCCCC1(CCCC)C(=O)NC(=Nc2cccc(C)c2)NC1=O	inconclusive: 16.4 µM [falling, partial curve]	–
COC(=O)[C@]12OC[C@]34C([C@@H](O)[C@@H]1O)[C@]1(C)CC(=O)C(O)=C(C)[C@@H]1C[C@H]3OC(=O)[C@H](O)[C@@H]24 (stereo partly drawn)	inconclusive: 3.66 µM [falling, partial curve, poor fit]	–
O=P(NC1CCCCC1)(Oc1ccccc1)Oc1ccccc1	inconclusive: 29.1 µM [falling, partial curve, poor fit]	–
Cc1cc(N(C)C)ccc1N=Nc1ccc(N)cc1	inconclusive: 10.3 µM [falling, partial curve, poor fit]	–
CCCCOP(=O)(c1ccc(N(C)C)cc1)C(Nc1ccccc1)c1ccccc1 (stereo not drawn)	inconclusive: 29.1 µM [falling, single point]	–
CN1CCN(c2ccc([N+](=O)[O-])c(NCC3CCCO3)c2)CC1 (stereo not drawn)	inconclusive: 18.4 µM [falling, partial curve, poor fit]	–
O=C1NC(=O)C(=Cc2ccc3ccccc3c2)C(=O)N1	inconclusive: 29.1 µM [activator, single point]	–
Fc1ccc(CCNCc2ccc(Cl)c(Cl)c2)cc1	inconclusive: 29.1 µM [falling, single point]	–
Cc1oc(-c2cccs2)nc1CSCC(=O)N1CCC2(CC1)OCCO2	–	inactive: 13.3%
COc1ccc(NC(=O)c2cn(CCC#N)nc2-c2ccccc2)cc1	–	inactive: 3.03%
CN1CN(c2ccccc2)C2(CCN(CCCSc3ccccc3NC(=O)/C=C/c3ccccc3)CC2)C1=O	inconclusive: 29.1 µM [falling, single point]	–
Fc1ccc(C(OCCN2CCCC2)c2ccc(Br)cc2)cc1 (stereo not drawn)	–	inactive: -2.11%
N#Cc1cc2c(nc1SCC(=O)Nc1cc(Cl)ccc1Cl)C1CCN2CC1	inconclusive: 20.6 µM [falling, single point]	–

Compound	Potency	activity change, negative = cytotoxicity
CC(C)Cn1c(O)c(N=NC(=O)c2cccc(S(=O)(=O)N3CCCCC3)c2)c2ccccc21	inconclusive: 14.6 µM [falling, partial curve, poor fit]	–
CC(C)(C)c1ccc(CN2C(=O)CN=C(c3ccccc3)c3ccccc32)cc1	active: 25.9 µM	–
CCC(C)(O)C(=O)OC1C(=O)OC2CC3C(C)=CC(=O)C(O)C3(C)C3C4(O)OCC23C1C(C)C4O (stereo not drawn)	active: 5.8 µM	–
C[C@@H]1O[C@@H](O[C@H]2C[C@@H](O)[C@]3(CO)[C@H]4[C@H](O)C[C@]5(C)[C@@H](C6=CC(=O)OC6)CC[C@]5(O)[C@@H]4CC[C@]3(O)C2)[C@H](O)[C@H](O)[C@H]1O	inconclusive: 0.103 µM [falling, full curve]	–
Cc1c(N=Nc2c(O)n(Cc3ccccc3)c(=O)[nH]c2=O)c(=O)n(-c2ccccc2)n1C	active: 16.4 µM	–
O=C(c1ccc2c3c(cccc13)CC2)C1CCCN(CC2CC2)C1 (stereo not drawn)	inconclusive: 20.6 µM [falling, partial curve, poor fit]	–
O=C1NC(=O)N(c2ccc3c(c2)OCO3)C(=O)/C1=C/c1ccc(N2CCCC2)o1	inconclusive: 18.4 µM [falling, single point]	–
CCOC(=O)[C@]12Cc3cc(C)ccc3[C@H]1N(Cc1ccccc1)C(=O)c1ccccc12	inconclusive: 29.1 µM [falling, partial curve, poor fit]	–
Cc1ccc(-c2cc(-c3ccc(C)cc3)[n+](C)o2)cc1	inconclusive: 14.6 µM [falling, partial curve, poor fit]	–
O=C1NC(=O)N(c2ccccc2F)C(=O)/C1=C/c1ccc(Sc2nc3ccccc3[nH]2)o1	inconclusive: 20.6 µM [falling, partial curve, poor fit]	–
CC1(C)Cc2c(sc3c2C(=O)NC(c2cccnc2)N3)CO1 (stereo not drawn)	–	inactive: 3.23%
CN1C(=O)/C(=C\c2ccc(N3CCCCCC3)cc2)C(=O)NC1=S	–	inactive: -9.94%
COc1cccc(/C=C2\N=C(c3cncc(Br)c3)OC2=O)c1	inconclusive: 18.4 µM [activator, partial curve, poor fit]	–
O=C1NC(=O)N(c2ccccc2)C(=O)/C1=C/c1ccoc1	–	inactive: 11%
COCCCn1c(N)c(C(=O)OC(C)COC)c2nc3ccccc3nc21 (stereo not drawn)	inconclusive: 32.6 µM [activator, partial curve, poor fit]	–
COC1CC(C)C(OC)c2cc(O)cc(c2O)NC(=O)C(C)=CC=CC(C)C(OC(N)=O)C(C)=CC(C)C1OC (stereo not drawn)	inconclusive: 8.2 µM [falling, partial curve]	–
CO[C@@H]1C=CC23c4cc5c(cc4CO[C@]2(O)CN(C)[C@H]3C1)OCO5 (stereo partly drawn)	inconclusive: 0.731 µM [activator, full curve, poor fit]	–
Cc1ccc2c(C)c3ccc4ccccc4c3c[n+]2c1	inconclusive: 8.2 µM [falling, partial curve]	–
COc1ccc(-n2nc(C(=O)NCC(=O)N3CCC4(CC3)OCCO4)c3ccccc3c2=O)c(OC)c1	inconclusive: 0.13 µM [falling, full curve, poor fit]	–
Cc1ccc(Cn2nc(C)c(C=O)c2Cl)cc1	–	inactive: 4.72%
Cc1cc(C)c(C)c(C(O)(C(=O)O)c2ccccc2)c1C (stereo not drawn)	inconclusive: 14.6 µM [falling, partial curve, poor fit]	–

Three compounds already listed, sorted by number of heavy atoms, ascending.
Compound	Potency	activity change, negative = cytotoxicity
O=C1NC(=O)N(c2ccccc2)C(=O)/C1=C/c1ccoc1	–	inactive: 11%
COCCCn1c(N)c(C(=O)OC(C)COC)c2nc3ccccc3nc21 (stereo not drawn)	inconclusive: 32.6 µM [activator, partial curve, poor fit]	–
CC(C)Cn1c(O)c(N=NC(=O)c2cccc(S(=O)(=O)N3CCCCC3)c2)c2ccccc21	inconclusive: 14.6 µM [falling, partial curve, poor fit]	–
